PubChem BioAssay AID1259424 | University of Nebraska Medical Center – 2018
The deposit covers about 14,000 reagents; this is a part drawn at random. 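Higher correlation or smaller distance means closer resemblance to KSR1 loss; control wells, including KSR1 knockdowns, recur on many plates.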 Not given: the time to read-out.

Screen: 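Rank knockdowns across the genome by resemblance to the KSR1 depletion profile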 (primary screen)
Cells: human HCT116 colon cancer cells
Reagents: siRNA pool against human genes, 50 nM
Measured: 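Six signature mRNAs by branched-DNA multiplex assay, scaled to two housekeeping genes and non-targeting median, log2; matched to mean KSR1 knockdown profile by Pearson correlation and euclidean distance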
Direction: mean correlation with KSR1 profile and KSR1 correlation: higher = expression change more like KSR1 knockdown; mean distance from KSR1 profile: higher = expression change less like KSR1 knockdown

| mean correlation with KSR1 profile | mean distance from KSR1 profile | KSR1 correlation, replicate 1 | KSR1 correlation, replicate 2 | KSR1 correlation, replicate 3 | gene knocked down | PubChem SID |
| --- | --- | --- | --- | --- | --- | --- |
| 0.519 | 1.63 | 0.352 | 0.802 | 0.178 | NPBWR2 | SID363996205 |
| -0.465 | 3.34 | -0.394 | -0.62 | -0.611 | AMBP | SID363992858 |
| -0.476 | 2.29 | -0.389 | -0.581 | -0.392 | HABP4 | SID363998715 |
| -0.0504 | 3.95 | -0.131 | 0.0918 | -0.395 | LINC00626 | SID364005605 |
| -0.665 | 1.95 | -0.728 | -0.659 | -0.622 | MLPH | SID364002750 |
| 0.133 | 1.5 | 0.0558 | 0.233 | 0.0981 | PBX2 | SID363993755 |
| -0.595 | 3.59 | -0.547 | -0.582 | -0.618 | AKAP17A | SID363996024 |
| 0.0674 | 2.17 | 0.177 | 0.211 | -0.222 | FGD1 | SID363995445 |
| -0.537 | 3.53 | -0.464 | -0.61 | -0.516 | MAGEF1 | SID364002375 |
| 0.485 | 1.32 | 0.52 | 0.377 | 0.594 | LRFN3 | SID364002833 |
| -0.778 | 1.92 | -0.499 | -0.817 | -0.709 | KCNQ1 | SID363991553 |
| -0.16 | 2.17 | -0.325 | -0.147 | -0.221 | ACAA2 | SID363996952 |
| -0.0893 | 2.12 | -0.0561 | -0.255 | -0.255 | GUCA1C | SID363996364 |
| 0.222 | 3.33 | 0.182 | 0.0723 | 0.394 | SYT11 | SID364004703 |
| 0.032 | 2.26 | 0.158 | -0.0499 | -0.204 | CBLB | SID364004796 |
| -0.475 | 1.32 | -0.741 | -0.699 | -0.0675 | BIRC2 | SID363992457 |
| -0.596 | 9.43 | -0.363 | -0.463 | -0.453 | MOB1A | SID364000888 |
| 0.273 | 1.63 | 0.309 | 0.32 | 0.476 | ZNF254 | SID363995827 |
| -0.424 | 3.47 | -0.554 | -0.512 | -0.149 | RPS13 | SID363992315 |
| -0.198 | 1.09 | -0.294 | -0.163 | 0.0727 | FGF1 | SID363992090 |
| 0.655 | 1.59 | 0.582 | 0.638 | 0.611 | HTR1D | SID363992151 |
| -0.335 | 1.44 | 0.0713 | -0.27 | -0.823 | CTNNA1 | SID363993116 |
| 0.144 | 3.92 | -0.0046 | 0.315 | 0.0558 | FKBP10 | SID364002230 |
| 0.568 | 1.46 | 0.519 | 0.6 | 0.545 | TGS1 | SID364003096 |
| 0.186 | 2.13 | 0.334 | 0.0766 | 0.135 | NFKB1 | SID363995040 |

Reformatted: 7 of the entries above.
mean correlation with KSR1 profile,mean distance from KSR1 profile,"KSR1 correlation, replicate 1","KSR1 correlation, replicate 2","KSR1 correlation, replicate 3",gene knocked down,PubChem SID
-0.537,3.53,-0.464,-0.61,-0.516,MAGEF1,SID364002375
0.485,1.32,0.52,0.377,0.594,LRFN3,SID364002833
-0.778,1.92,-0.499,-0.817,-0.709,KCNQ1,SID363991553
-0.16,2.17,-0.325,-0.147,-0.221,ACAA2,SID363996952
-0.0893,2.12,-0.0561,-0.255,-0.255,GUCA1C,SID363996364
0.222,3.33,0.182,0.0723,0.394,SYT11,SID364004703
0.032,2.26,0.158,-0.0499,-0.204,CBLB,SID364004796

More records:
| mean correlation with KSR1 profile | mean distance from KSR1 profile | KSR1 correlation, replicate 1 | KSR1 correlation, replicate 2 | KSR1 correlation, replicate 3 | gene knocked down | PubChem SID |
| --- | --- | --- | --- | --- | --- | --- |
| -0.264 | 3.47 | -0.476 | -0.272 | -0.287 | THAP7 | SID364003365 |
| -0.256 | 3.4 | -0.128 | -0.31 | -0.2 | CSTF2T | SID363999373 |
| -0.392 | 2.87 | -0.299 | -0.343 | -0.541 | ARPC2 | SID363996616 |
| 0.297 | 2.82 | 0.43 | 0.223 | 0.356 | GUCA1B | SID363993305 |
| -0.456 | 2.2 | -0.393 | -0.652 | -0.256 | DNAJB4 | SID363997765 |
| -0.124 | 2.03 | -0.187 | -0.202 | -0.113 | BCAP29 | SID364001217 |
| 0.42 | 1.34 | 0.361 | 0.56 | 0.273 | TM4SF5 | SID363995017 |
| -0.288 | 1.44 | -0.715 | -0.525 | -0.588 | SNX24 | SID363998563 |
| 0.74 | 2.86 | 0.777 | 0.743 | 0.673 | IL1B | SID363991895 |
| -0.0268 | 1.6 | -0.169 | 0.0727 | 0.138 | FADD | SID363994886 |
| 0.194 | 1.79 | 0.189 | 0.118 | 0.086 | ZNF155 | SID363994546 |
| 0.239 | 1.14 | -0.789 | 0.0968 | 0.0609 | KCNMB3 | SID363998827 |
| 0.785 | 1.3 | 0.824 | 0.859 | 0.28 | PRR5L | SID364003105 |
| 0.0887 | 1.35 | -0.171 | 0.183 | 0.00286 | CBL | SID363996114 |
| 0.277 | 1.54 | 0.294 | 0.121 | 0.106 | TRIM46 | SID364003226 |
| 0.241 | 3.93 | 0.47 | 0.304 | 0.115 | ZNF37A | SID364005090 |
| -0.595 | 3.65 | -0.671 | -0.503 | -0.443 | POLK | SID363999957 |
| 0.0507 | 1.07 | 0.189 | 0.263 | -0.0993 | ACBD6 | SID364003944 |
| -0.013 | 1.71 | 0.215 | 0.301 | -0.265 | ZMAT3 | SID364002456 |
| -0.113 | 2.14 | -0.174 | 0.0424 | -0.458 | SLAIN2 | SID364005162 |
| 0.00366 | 2.19 | -0.0632 | -0.0525 | 0.0541 | PKHD1 | SID364004569 |
| 0.00159 | 1.91 | -0.334 | 0.0102 | -0.383 | EHD3 | SID363998972 |
| 0.712 | 1.34 | 0.533 | 0.761 | 0.752 | CCR1 | SID363992579 |
| -0.0764 | 1.73 | -0.0826 | -0.4 | 0.162 | FDPSP3 | SID363992300 |
| -0.654 | 1.67 | -0.814 | -0.516 | -0.334 | SLC22A17 | SID364000233 |
